Test results: PubChem BioAssay AID2685 (National Center for Advancing Translational Sciences (NCATS), 2010)
In all, about 320,000 compounds went through this assay and about 2,100 (0.66%) were called active. Inconclusive means that the source gave no clear call. Such entries were picked first, then a sample of the others. The call rests on the fitted dose curve; in most records, active means well fitted inhibition curve with a large enough effect in the signal ratio, with a control signal flat (not every such curve was filed as active); inconclusive means small, poorly fitted or top-dose-only effect, or effect the other way, or a change in a side signal; inactive means flat fitted curve, though single readings scatter; the % refers to the signal ratio. Potencies of inconclusive entries are doubtful fits and often do not repeat.

Test: qHTS Assay for Lipid Storage Modulators in Drosophila S3 Cells
Conditions: BODIPY lipid droplet fluorescence, 18-24 h, cells fed with added oleic acid; lipid storage change, negative = inhibition: at 46.1 µM (top of the series) unless noted
Outline: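 Laser-scanning cytometry quantifies lipid droplet accumulation (500–530 nm total intensity; droplet/cell object ratio) in oleic acid-fed (400 uM added) Drosophila S3 cells treated with a concentration series. 20 uM Triacsin C defined 100% inhibition.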
On the % scale 0 is the no-effect control and ±100 the full control effect; potency means the concentration at half of the fitted maximal effect.

Structure (SMILES) | lipid storage change, negative = inhibition | Potency
O=C(NNC1=NCCCCC1)Nc1ccc(Cl)cc1 | inconclusive: -17.5% | –
CN(C)/C=C1\C=C(c2ccccc2)OC1=O | – | inconclusive: 18.4 µM [falling, single point]
COc1ccc(Nc2oc(-c3ccco3)nc2S(=O)(=O)c2ccc(F)cc2)cc1 | – | inconclusive: 1.3 µM [activator, partial curve, poor fit]
O=C(Cn1cnc2c(nnn2-c2ccccc2)c1=O)N1CCOCC1 | – | inconclusive: 32.6 µM [cytotoxic, partial curve, poor fit]
COc1ccc([C@H]2CC(=O)C=C(/C=C/Cc3ccccc3)C2)cc1 | – | inconclusive: 1.84 µM [falling, partial curve]
CCC(NC(=O)c1ccccc1O)c1ccccc1 (configuration not stated) | inconclusive: -39.7% | –
CC(C)Oc1ccccc1NC(=O)CSc1nc2ccccc2c(=O)n1C | inconclusive: 19.5% | –
O=C(CSc1ccc([N+](=O)[O-])cn1)Nc1cc(C(F)(F)F)ccc1N1CCOCC1 | inconclusive: -81.4% | –
COc1ccccc1N1C(=O)Cc2ccccc2C1=O | – | inconclusive: 0.517 µM [activator, single point]
CCOC(=O)N1CCN(C(=O)c2c[nH]c3ccc(S(=O)(=O)N(C)c4ccc(F)cc4)cc3c2=O)CC1 | inconclusive: -19.6% | –
COc1cc2c(cc1OC)C1(NCC2)C(=O)Nc2ccccc21 (configuration not stated) | inconclusive: -56.3% | –
CCCCC(O)(CCCC)C(=O)NN(C(=O)OC)c1ccccc1 | inactive | –
CCOC(=O)CCN(c1ccccc1)S(=O)(=O)c1ccc(-c2ccc(=O)[nH]n2)s1 | inconclusive: -37.3% | –
CC(NC(=O)CN(c1ccccc1F)S(C)(=O)=O)c1ccccc1 (configuration not stated) | – | inconclusive: 18.4 µM [falling, single point]
CC1CCCCN1C(=O)c1cc2nc(-c3ccccc3)cc(-c3ccccc3)n2n1 (configuration not stated) | inconclusive: -19% | –
CCOc1cc(/C=C(\C#N)C(=O)NCC2CCCO2)ccc1O (configuration not stated) | inconclusive: -27.4% | –
O=C1CSC(c2cccnc2)N1C1CCCCC1 (configuration not stated) | – | inconclusive: 29.1 µM [falling, single point]
CCOC(=O)/C=C/C(=O)Nc1ccc(S(=O)(=O)Nc2c(C)cc(C)cc2C)cc1 | inconclusive: -6.57% | –
COc1ccc(Br)cc1CNC(=O)C1CCN(c2nnc(N3CCCC3=O)s2)CC1 | – | inconclusive: 29.1 µM [activator, single point]
CCN(CC)C(=O)C1CCCN(C(=O)Nc2ccccc2)C1 (configuration not stated) | – | inconclusive: 2.31 µM [activator, partial curve, poor fit]
CN(C)C(=O)c1ccc(COc2ccccc2Br)o1 | inconclusive: 94.7% | –
COc1ccc(NC(=O)CN2C(=O)/C(=C3\SC(=S)N(CCC(=O)O)C3=O)c3ccccc32)cc1 | inconclusive: -9.71% | –
COCCn1c(N)c(N(Cc2ccccc2)C(=O)c2ccc(-c3ccc(Cl)cc3)o2)c(=O)[nH]c1=O | inconclusive: 20.2% | –
CN(Cc1ccco1)C(=O)CCc1nc2sc3c(c2c(=O)[nH]1)CCCC3 | – | inconclusive: 16.4 µM [falling, single point]

Structure (SMILES) | lipid storage change, negative = inhibition | Potency
Cc1nc(SCC(=O)NCC2CCCO2)c2c3c(sc2n1)CCCC3 (configuration not stated) | inconclusive: 7.39% | –
CCOc1ccc(N2C(=O)C3ON(C)C(c4ccc([N+](=O)[O-])cc4)C3C2=O)cc1 (configuration not stated) | – | inconclusive: 14.6 µM [falling, partial curve, poor fit]
O=C(CN1CCc2ccccc21)NCc1ccc2c(c1)OCO2 | inconclusive: 10.7% | –
Cc1cc(C)n2nc(C(=O)NC3CCCc4ccccc43)nc2n1 (configuration not stated) | inconclusive: -1.13% | –
Cc1cccc(NC(=O)C2c3ccccc3Oc3ccccc32)n1 | inconclusive: 20.5% | –
CCOC(=O)C(C)n1cnc2c(nnn2-c2ccc(F)cc2)c1=O (configuration not stated) | inconclusive: -2.7% | –
CC(OC(=O)CCCCCN=C1NS(=O)(=O)c2ccccc21)C(=O)Nc1cc(Cl)cc(Cl)c1 (configuration not stated) | inconclusive: 15.5% | –
CCCCN1C(=O)C(=O)N(CC(=O)Nc2cccc(C(C)=O)c2)C1=O | inconclusive: 4.36% | –
CCCCOc1c(Cl)cc(C(=O)N2CCN(CC(=O)N3CCCC3)CC2)cc1OCC | inconclusive | –
C(=N\n1cnnc1)/c1ccc(-c2ccccc2)cc1 | inconclusive: 24.8% | –
CC1(C)O[C@@H]2[C@H](O1)[C@@H](CO)O[C@H]2n1cnc2c(N)ncnc21 | – | inconclusive: 0.146 µM [activator, partial curve, poor fit]
COC(=O)Cc1ccc(O)c(N)c1 | – | inconclusive: 29.1 µM [falling, partial curve, poor fit]
COc1cc(NC(=O)c2cccc3c2C(=O)N(C2CCCCC2)C3)cc(OC)c1OC | – | inconclusive: 0.58 µM [activator, single point]
COC(=O)c1onc(C(=O)c2ccccc2)c1C(=O)OC | inconclusive: -90.8% | –
Cc1ccc(C(C)C)c(OCC(=O)N2CCN(c3ncccn3)CC2)c1 | – | inconclusive: 2.06 µM [activator, partial curve]
O=C(/C=C/c1ccccc1)NNC1=NS(=O)(=O)c2ccccc21 | – | inconclusive: 18.4 µM [activator, single point]
Nn1c(SCC(=O)NC2CCCc3ccccc32)nnc1-c1cccs1 (configuration not stated) | – | inconclusive: 0.517 µM [activator, single point]
CC(=O)c1ccc(N2CCN(C(=O)Cc3cccs3)CC2)cc1 | inconclusive: 43.4% | –
CCOc1ccc(OCC(=O)OCc2cc(=O)n3cc(Br)ccc3n2)cc1 | inconclusive: 10.6% | –
CCOc1ccc(-c2nc(N)ncc2-c2ccc(OC)cc2)c(O)c1 | – | inconclusive: 2.06 µM [activator, full curve, poor fit]
C#CCOCCOCCOCCNc1nc(N2CCN(C(=O)CCCCCCCCCCNC(=O)[C@H](CCCCN)n3cc(C)nn3)CC2)nc(N2CCN(C(=O)CCCCCCCCCCNC(=O)[C@H](CO)n3cc(CCCSC)nn3)CC2)n1 | inconclusive: -100% | –
COC(=O)COc1ccc(S(=O)(=O)NCc2ccco2)cc1 | – | inconclusive: 4.61 µM [falling, full curve, poor fit]
O=C(O)c1ccc(CNC(=S)Nc2ccccc2)cc1 | inconclusive: -18.5% | –
O=C(NCc1ccccc1)N1CCC(n2cnc3cc(F)ccc32)CC1 | inconclusive: 7.96% | –

Quoted from the entries so far, 3 compounds:
Structure (SMILES) | lipid storage change, negative = inhibition | Potency
CC1(C)O[C@@H]2[C@H](O1)[C@@H](CO)O[C@H]2n1cnc2c(N)ncnc21 | – | inconclusive: 0.146 µM [activator, partial curve, poor fit]
COC(=O)Cc1ccc(O)c(N)c1 | – | inconclusive: 29.1 µM [falling, partial curve, poor fit]
COc1cc(NC(=O)c2cccc3c2C(=O)N(C2CCCCC2)C3)cc(OC)c1OC | – | inconclusive: 0.58 µM [activator, single point]

Additional records follow:

Structure (SMILES) | lipid storage change, negative = inhibition | Potency
CC1CCCC(C)N1C(=O)COC(=O)C12CC3CC(CC(Cl)(C3)C1)C2 (configuration not stated) | inconclusive: 8.42% | –
Cc1cc(C)n(-c2ccc(C(=O)OCC(=O)Nc3ccc(S(=O)(=O)N4CCOCC4)cc3)cc2)n1 | inconclusive: 8.36% | –
COc1ccc(S(=O)(=O)N2CCCN(CC(=O)Nc3ccc(NC(C)=O)cc3)CC2)cc1 | – | inconclusive: 0.164 µM [activator, full curve]
CCN=C1SC(CC(=O)Nc2sc(C)c(C)c2C(=O)OC)C(=O)N1CC (configuration not stated) | – | inconclusive: 0.58 µM [activator, full curve, poor fit]
O=C(CSc1n[nH]c(=O)n1C1CC1)N1N=C(c2ccc(Cl)cc2)CC1c1ccco1 (configuration not stated) | inconclusive: 38.3% | –
COc1cc(C(=O)NCC2CCCCC2)ccc1OCc1c(C)noc1C | – | inconclusive: 0.517 µM [activator, full curve]
CC(C)(C)NC(=S)Nc1cccc(C(F)(F)F)c1 | – | inconclusive: 29.1 µM [cytotoxic, single point]
COc1ccc(C(NC(=O)C(C)C)c2c(O)ccc3ccccc23)cc1OC (configuration not stated) | inconclusive: 19.5% | –
CC(C)c1nc(SCC(=O)NCC2CCCO2)c2c(=O)n(C)c(=O)n(C)c2n1 (configuration not stated) | inconclusive: 26.7% | –
COc1ccccc1Oc1ccc2c(c1)C(=O)N(c1ccc(Br)c3cccnc13)C2=O | inconclusive: 12% | –
CS(=O)(=O)c1ccc(Cl)c(NC(=O)C2CCN(S(=O)(=O)c3cccs3)CC2)c1 | inconclusive: 11.9% | –
Cc1ccc(CNC(=S)NC2CCC(C(C)(C)C)CC2)cc1 (configuration not stated) | inconclusive: -42.6% | –
CC(C)(C)OC(=O)CNC(=O)c1[nH]cnc1C(=O)Nc1ccc(CNC(=O)OC(C)(C)C)cc1 | inconclusive: -35.4% | –
O=C(Nc1ccc(N2CCOCC2)cc1)c1cccc2ccccc12 | inconclusive: 112% | –
CC(NC(=O)c1cc(S(=O)(=O)N2CCOCC2)cn1C)c1ccccc1 (configuration not stated) | – | inconclusive: 16.4 µM [activator, partial curve, poor fit]
O=C(Nc1ccc(N2CCOCC2)c([N+](=O)[O-])c1)c1ccco1 | – | inconclusive: 0.146 µM [falling, full curve, poor fit]
O=C(NCCc1ccccc1)c1ccc(CS(=O)(=O)Cc2ccccc2F)o1 | inconclusive: 3.12% | –
COC(=O)c1cccc(N(CC(=O)NCC2CCCO2)C(=O)CCC(=O)Nc2cc(C)on2)c1 (configuration not stated) | – | inconclusive: 1.16 µM [falling, single point]
COc1ccc(OC)c(C(=O)COC(=O)CNC(=O)c2ccccc2)c1 | inconclusive: -24% | –
CCN(C(=O)c1ccco1)c1nc(-c2ccc(OC)cc2)cs1 | – | inconclusive: 6.51 µM [falling, single point]
CCc1ccc(NC(=O)NCC2CCN(Cc3cccc(Cl)c3)CC2)cc1 | inactive | –
O=C(NC1CCCCC1)C(c1ccncc1)N(C(=O)c1ccco1)c1ccc(F)cc1 (configuration not stated) | inconclusive: 4.84% | –
CCCCn1c(SCC(=O)NC2CCS(=O)(=O)C2)nnc1-c1ccc(OC)cc1 (configuration not stated) | inconclusive: -38.1% | –
Cc1c(C#N)c(NC(=O)C(C)C)n(Cc2ccccc2)c1C | inconclusive: -20.2% [at 9.22 µM] | –
